For some assays here: Where cells or extracts were used, other partners may take part. For some assays here: No signal at the amounts used counts as a negative. For some assays here: At least one verdict rests on a figure or table, not on a statement of the authors. For at least one entry, the source does not settle the construct or the ends of the probe. For some assays here: A weaker result is weaker than the reference pair of the same experiment.
Legend:
[1] = target: EFHD2 (Homo sapiens) (UniProt Q96C19); assay: SPR; conditions: 100 nM RNA; 3' biotin; SPR: 25 °C, 1:10 mixture of binding buffer (10 mM Tris-HCl pH 7.5, 150 mM KCl) and HBS-EP (10 mM HEPES pH 7.4, 150 mM NaCl, 3 mM EDTA, 0.005% P20), protein immobilized; recombinant protein; protein details: N-terminal His-tag (pET28a); label: biotin
[2] = target: SRSF1 (Homo sapiens) (UniProt Q07955); assay: SPR; conditions: 100 nM RNA; 3' biotin; SPR: 25 °C, 1:10 mixture of binding buffer (10 mM Tris-HCl pH 7.5, 150 mM KCl) and HBS-EP (10 mM HEPES pH 7.4, 150 mM NaCl, 3 mM EDTA, 0.005% P20), protein immobilized; recombinant protein; protein details: N-terminal His-tag (pET28a); label: biotin
[3] = target: U2AF65 (native) (Homo sapiens) (UniProt P26368); assay: pull-down; conditions: 3' biotin; pull-down: RNA on streptavidin beads blocked in 10 mM Tris-HCl pH 7.5, 100 mM KCl, 0.1 mM EDTA, 1 mM DTT, 0.01% Triton X-100, BSA, tRNA; extract 1 h at 30 °C; protein in an extract; label: biotin
[4] = target: hnRNPU (Homo sapiens) (UniProt Q00839); assay: pull-down; conditions: 3' biotin; pull-down: RNA on streptavidin beads blocked in 10 mM Tris-HCl pH 7.5, 100 mM KCl, 0.1 mM EDTA, 1 mM DTT, 0.01% Triton X-100, BSA, tRNA; extract 1 h at 30 °C; protein in an extract; label: biotin
[5] = target: hnRNPA3 (Homo sapiens) (UniProt P51991); assay: pull-down; conditions: 3' biotin; pull-down: RNA on streptavidin beads blocked in 10 mM Tris-HCl pH 7.5, 100 mM KCl, 0.1 mM EDTA, 1 mM DTT, 0.01% Triton X-100, BSA, tRNA; extract 1 h at 30 °C; protein in an extract; label: biotin
[6] = target: RPS5 (Homo sapiens) (UniProt P46782); assay: pull-down; conditions: 3' biotin; pull-down: RNA on streptavidin beads blocked in 10 mM Tris-HCl pH 7.5, 100 mM KCl, 0.1 mM EDTA, 1 mM DTT, 0.01% Triton X-100, BSA, tRNA; extract 1 h at 30 °C; protein in an extract; label: biotin
[7] = tested on: Actin (Homo sapiens); assay: pull-down; conditions: 3' biotin; pull-down: RNA on streptavidin beads blocked in 10 mM Tris-HCl pH 7.5, 100 mM KCl, 0.1 mM EDTA, 1 mM DTT, 0.01% Triton X-100, BSA, tRNA; extract 1 h at 30 °C; protein in an extract; label: biotin
[8] = target: NAD-dependent malic enzyme, mitochondrial (ME2) (Homo sapiens) (UniProt P23368); assay: pull-down; conditions: 3' biotin; pull-down: RNA on streptavidin beads blocked in 10 mM Tris-HCl pH 7.5, 100 mM KCl, 0.1 mM EDTA, 1 mM DTT, 0.01% Triton X-100, BSA, tRNA; extract 1 h at 30 °C; protein in an extract; label: biotin
[9] = target: YB-1 (Homo sapiens) (UniProt P67809); assay: pull-down; conditions: 3' biotin; pull-down: RNA on streptavidin beads blocked in 10 mM Tris-HCl pH 7.5, 100 mM KCl, 0.1 mM EDTA, 1 mM DTT, 0.01% Triton X-100, BSA, tRNA; extract 1 h at 30 °C; protein in an extract; label: biotin

| Sequence | binding result [1] | binding result [2] | binding result [3] | binding result [4] | binding result [5] | binding result [6] | binding result [7] | binding result [8] | binding result [9] |
| --- | --- | --- | --- | --- | --- | --- | --- | --- | --- |
| AACGAGAGAGAGAGAGAGAGAGAGAGA [MMP16 mut] | binds more weakly | binds more weakly | no binding | no binding | binds | no binding | binds | no binding |  |
| AACGAGGGAGGGAGGGAGAGGGAGAGA [MMP16 GQ] | binds more weakly | binds more weakly | binds | binds | no binding | binds | binds | binds | binds |

Reference: PMC4041461
